Assay results taken from the supplement of paper PMC7666118.
The other results are listed elsewhere or left out.

The compounds below were run against HSP90AA1 (UniProt P07900) (assay: dose-dependent thermal stabilisation call (2D-TPP, DLPTP, 10% FDR) (binary (1 = stabilised)); higher = stabilised by the compound). Settings: system: HL-60 intact cells; concentration range 0.04-10 µM.
Description: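 2D thermal proteome profiling in intact HL-60 cells treated with BRD-3811 (0, 0.04, 0.29, 2, 10 uM) for 90 min at 37 C, then heated 3 min at one of 12 temperatures (42-63.9 C). Soluble protein was quantified by TMT10 MS. The value is the DLPTP call of the paper: dose-dependent thermal stabilisation over all temperatures at 10% FDR (F-test of a dose-response against a flat model); one experiment, one call per tested protein.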

SMILES	dose-dependent thermal stabilisation call
COc1ccc(Cn2ccc3cc(C)c(C(=O)NO)cc32)cc1	inactive: 0
